Binding data for five molecules are collected here from article PMC4931344.

These are yes or no findings as the source states them, for the method shown. Binding seen in cells or lysates may run through a third protein. Some results given as binding are weak or reduced against the parent protein; the word gives no strength. For some of these results: Sequences can lack the tags named with a protein.

Test [1] concerns the target T1, FLAG–FLCN (amino-terminally FLAG-tagged folliculin) (UniProt Q8NFG4).
T1 sequence: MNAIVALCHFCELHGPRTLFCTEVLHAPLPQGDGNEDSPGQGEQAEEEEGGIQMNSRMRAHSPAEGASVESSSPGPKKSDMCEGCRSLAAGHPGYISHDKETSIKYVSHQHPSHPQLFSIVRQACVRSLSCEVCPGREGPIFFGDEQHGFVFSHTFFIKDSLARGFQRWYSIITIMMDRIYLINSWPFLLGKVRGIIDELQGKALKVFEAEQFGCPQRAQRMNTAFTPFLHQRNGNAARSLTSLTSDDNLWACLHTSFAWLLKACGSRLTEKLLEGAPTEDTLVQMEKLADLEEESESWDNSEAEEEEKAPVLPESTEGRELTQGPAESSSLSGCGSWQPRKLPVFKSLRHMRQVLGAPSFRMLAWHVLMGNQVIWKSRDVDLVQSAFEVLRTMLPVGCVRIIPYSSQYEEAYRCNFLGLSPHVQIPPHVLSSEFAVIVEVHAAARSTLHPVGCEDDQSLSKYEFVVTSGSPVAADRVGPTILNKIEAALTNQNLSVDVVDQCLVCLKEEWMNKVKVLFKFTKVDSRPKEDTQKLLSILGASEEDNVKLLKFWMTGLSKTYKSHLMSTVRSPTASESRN
Kind of test: co-IP; FLAG–FLCN (empty vector control) immunoprecipitated from HEK293, immunoblot.

Test [2] deals with T2, endogenous FLCN (folliculin) (human (endogenous in HEK293)) (UniProt Q8NFG4).
T2 sequence: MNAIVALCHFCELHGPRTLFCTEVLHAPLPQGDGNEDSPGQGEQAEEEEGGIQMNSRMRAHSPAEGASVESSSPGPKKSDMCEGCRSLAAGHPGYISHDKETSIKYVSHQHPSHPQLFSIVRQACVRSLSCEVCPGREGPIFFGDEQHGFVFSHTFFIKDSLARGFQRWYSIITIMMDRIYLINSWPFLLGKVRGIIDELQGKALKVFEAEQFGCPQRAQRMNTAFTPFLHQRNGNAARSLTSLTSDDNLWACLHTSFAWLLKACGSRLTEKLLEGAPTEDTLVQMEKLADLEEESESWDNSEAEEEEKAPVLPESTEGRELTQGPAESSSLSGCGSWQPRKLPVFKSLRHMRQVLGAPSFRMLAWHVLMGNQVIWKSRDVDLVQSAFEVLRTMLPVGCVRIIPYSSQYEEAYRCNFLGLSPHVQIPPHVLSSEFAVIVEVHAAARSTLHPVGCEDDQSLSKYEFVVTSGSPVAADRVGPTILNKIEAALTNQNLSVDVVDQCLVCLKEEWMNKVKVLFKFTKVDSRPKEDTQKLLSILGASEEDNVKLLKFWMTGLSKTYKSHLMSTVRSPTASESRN
Description: co-IP; endogenous FLCN isolated from HEK293 lysates with anti-FLCN (IgG control), immunoblot.

For test [3], the target named is T3, endogenous FNIP2 (folliculin-interacting protein 2) (human (endogenous in HEK293, cancer cell lines and renal tissue)) (UniProt Q9P278).
T3 sequence: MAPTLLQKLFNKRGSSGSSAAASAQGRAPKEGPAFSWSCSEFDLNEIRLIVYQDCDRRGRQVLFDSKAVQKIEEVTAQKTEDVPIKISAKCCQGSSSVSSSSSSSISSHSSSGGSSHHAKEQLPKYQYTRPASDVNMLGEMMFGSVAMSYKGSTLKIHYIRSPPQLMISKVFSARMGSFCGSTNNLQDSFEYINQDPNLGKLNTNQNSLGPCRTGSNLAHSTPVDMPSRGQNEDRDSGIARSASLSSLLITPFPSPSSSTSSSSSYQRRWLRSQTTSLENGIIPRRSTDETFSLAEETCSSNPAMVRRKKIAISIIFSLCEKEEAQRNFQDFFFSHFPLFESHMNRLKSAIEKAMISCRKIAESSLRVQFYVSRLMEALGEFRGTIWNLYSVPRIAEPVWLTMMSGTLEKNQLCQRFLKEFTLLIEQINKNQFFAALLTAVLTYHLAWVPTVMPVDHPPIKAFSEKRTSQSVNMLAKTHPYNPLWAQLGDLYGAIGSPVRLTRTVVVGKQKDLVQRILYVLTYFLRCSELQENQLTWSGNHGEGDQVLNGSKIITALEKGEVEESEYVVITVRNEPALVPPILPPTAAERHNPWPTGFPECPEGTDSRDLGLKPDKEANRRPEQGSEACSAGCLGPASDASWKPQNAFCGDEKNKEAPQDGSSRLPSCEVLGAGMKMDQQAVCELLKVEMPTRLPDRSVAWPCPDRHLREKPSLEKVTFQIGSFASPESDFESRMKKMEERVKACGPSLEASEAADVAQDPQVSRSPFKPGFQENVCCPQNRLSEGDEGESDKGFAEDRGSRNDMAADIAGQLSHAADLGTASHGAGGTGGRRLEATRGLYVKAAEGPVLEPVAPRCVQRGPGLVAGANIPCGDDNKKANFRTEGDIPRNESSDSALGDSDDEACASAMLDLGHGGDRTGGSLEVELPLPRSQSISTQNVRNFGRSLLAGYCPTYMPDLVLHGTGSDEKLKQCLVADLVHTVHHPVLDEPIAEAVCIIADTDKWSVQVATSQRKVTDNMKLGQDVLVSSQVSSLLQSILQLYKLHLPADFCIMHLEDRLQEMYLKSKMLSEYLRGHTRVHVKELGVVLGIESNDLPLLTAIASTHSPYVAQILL
Kind of test: co-IP; endogenous FNIP1 and FNIP2 isolated from HEK293 lysates with anti-FNIP1 or anti-FNIP2 (IgG control), immunoblot.

In test [4] the target is T4, endogenous FNIP1 (folliculin-interacting protein 1) (human (endogenous in HEK293, cancer cell lines and renal tissue)) (UniProt Q8TF40).
T4 sequence: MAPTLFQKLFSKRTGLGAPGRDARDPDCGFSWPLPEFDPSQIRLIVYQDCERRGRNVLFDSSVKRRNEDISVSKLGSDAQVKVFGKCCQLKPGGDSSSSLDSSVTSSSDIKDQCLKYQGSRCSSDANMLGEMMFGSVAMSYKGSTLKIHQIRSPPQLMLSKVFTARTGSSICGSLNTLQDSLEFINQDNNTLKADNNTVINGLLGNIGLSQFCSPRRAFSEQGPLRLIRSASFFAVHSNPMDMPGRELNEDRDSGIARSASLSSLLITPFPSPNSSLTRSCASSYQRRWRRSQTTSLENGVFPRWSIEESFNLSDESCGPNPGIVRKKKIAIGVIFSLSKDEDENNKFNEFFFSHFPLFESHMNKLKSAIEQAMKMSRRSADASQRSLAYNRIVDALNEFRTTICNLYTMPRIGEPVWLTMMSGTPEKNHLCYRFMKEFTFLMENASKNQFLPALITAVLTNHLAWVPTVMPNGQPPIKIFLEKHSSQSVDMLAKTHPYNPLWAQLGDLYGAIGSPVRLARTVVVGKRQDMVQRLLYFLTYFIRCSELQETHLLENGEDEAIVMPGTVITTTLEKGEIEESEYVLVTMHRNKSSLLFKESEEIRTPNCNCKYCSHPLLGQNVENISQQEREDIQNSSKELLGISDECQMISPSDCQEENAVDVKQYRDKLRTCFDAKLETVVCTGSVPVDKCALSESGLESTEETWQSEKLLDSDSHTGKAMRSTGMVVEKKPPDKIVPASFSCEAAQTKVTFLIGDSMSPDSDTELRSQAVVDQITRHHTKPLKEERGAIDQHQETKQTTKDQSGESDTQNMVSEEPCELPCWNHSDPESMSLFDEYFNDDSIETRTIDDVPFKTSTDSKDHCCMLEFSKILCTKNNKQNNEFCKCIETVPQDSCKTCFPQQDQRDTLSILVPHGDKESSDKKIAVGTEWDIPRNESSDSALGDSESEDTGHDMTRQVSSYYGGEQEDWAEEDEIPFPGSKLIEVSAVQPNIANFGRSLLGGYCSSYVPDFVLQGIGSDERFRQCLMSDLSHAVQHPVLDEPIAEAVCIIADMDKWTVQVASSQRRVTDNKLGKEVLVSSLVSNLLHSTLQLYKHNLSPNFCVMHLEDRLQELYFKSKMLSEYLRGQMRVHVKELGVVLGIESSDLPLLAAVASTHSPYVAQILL
Described as above.

Test [5] deals with HA–FNIP2 (UniProt Q9P278). Description: co-IP; sequential IP from co-transfected HEK293: anti-cMyc agarose, elution with cMyc peptides, dialysis, then anti-HA agarose; immunoblot.

B1: CCT2, endogenous (protein, UniProt P78371 1-535)
chain: MASLSLAPVNIFKAGADEERAETARLTSFIGAIAIGDLVKSTLGPKGMDKILLSSGRDASLMVTNDGATILKNIGVDNPAAKVLVDMSRVQDDEVGDGTTSVTVLAAELLREAESLIAKKIHPQTIIAGWREATKAAREALLSSAVDHGSDEVKFRQDLMNIAGTTLSSKLLTHHKDHFTKLAVEAVLRLKGSGNLEAIHIIKKLGGSLADSYLDEGFLLDKKIGVNQPKRIENAKILIANTGMDTDKIKIFGSRVRVDSTAKVAEIEHAEKEKMKEKVERILKHGINCFINRQLIYNYPEQLFGAAGVMAIEHADFAGVERLALVTGGEIASTFDHPELVKLGSCKLIEEVMIGEDKLIHFSGVALGEACTIVLRGATQQILDEAERSLHDALCVLAQTVKDSRTVYGGGCSEMLMAHAVTQLANRTPGKEAVAMESYAKALRMLPTIIADNAGYDSADLVAQLRAAHSEGNTTAGLDMREGTIGDMAILGITESFQVKRQVLLSAAEAAEVILRVDNIIKAAPRKRVPDHHPC
On to B1, for which the binding entry in test [1] and in test [2] was “binds” in each case.

B2: Cdc37^p50, endogenous (protein, UniProt Q16543 1-378)
chain: MVDYSVWDHIEVSDDEDETHPNIDTASLFRWRHQARVERMEQFQKEKEELDRGCRECKRKVAECQRKLKELEVAEGGKAELERLQAEAQQLRKEERSWEQKLEEMRKKEKSMPWNVDTLSKDGFSKSMVNTKPEKTEEDSEEVREQKHKTFVEKYEKQIKHFGMLRRWDDSQKYLSDNVHLVCEETANYLVIWCIDLEVEEKCALMEQVAHQTIVMQFILELAKSLKVDPRACFRQFFTKIKTADRQYMEGFNDELEAFKERVRGRAKLRIEKAMKEYEEEERKKRLGPGGLDPVEVYESLPEELQKCFDVKDVQMLQDAISKMDPTDAKYHMQRCIDSGLWVPNSKASEAKEGEEAGPGDPLLEAVPKTGDEKDVSV
Take B2: the binding entry in test [3], in test [4], in test [1] and in test [2] was “binds” each time.

B3: p23, endogenous (protein, UniProt Q15185 1-160)
chain: MQPASAKWYDRRDYVFIEFCVEDSKDVNVNFEKSKLTFSCLGGSDNFKHLNEIDLFHCIDPNDSKHKRTDRSILCCLRKGESGQSWPRLTKERAKLNWLSVDFNNWKDWEDDSDEDMSNFDRFSEMMNNMGGDEDVDLPEVDGADDDSQDSDDEKMPDLE
For the molecule B3, the binding result in test [3], in test [4], in test [1] and in test [2] was “binds” each time.

B4: PP5, endogenous (protein, UniProt P53041 1-499)
chain: MAMAEGERTECAEPPRDEPPADGALKRAEELKTQANDYFKAKDYENAIKFYSQAIELNPSNAIYYGNRSLAYLRTECYGYALGDATRAIELDKKYIKGYYRRAASNMALGKFRAALRDYETVVKVKPHDKDAKMKYQECNKIVKQKAFERAIAGDEHKRSVVDSLDIESMTIEDEYSGPKLEDGKVTISFMKELMQWYKDQKKLHRKCAYQILVQVKEVLSKLSTLVETTLKETEKITVCGDTHGQFYDLLNIFELNGLPSETNPYIFNGDFVDRGSFSVEVILTLFGFKLLYPDHFHLLRGNHETDNMNQIYGFEGEVKAKYTAQMYELFSEVFEWLPLAQCINGKVLIMHGGLFSEDGVTLDDIRKIERNRQPPDSGPMCDLLWSDPQPQNGRSISKRGVSCQFGPDVTKAFLEENNLDYIIRSHEVKAEGYEVAHGGRCVTVFSAPNYCDQMGNKASYIHLQGSDLRPQFHQFTAVPHPNVKPMAYANTLLQLGMM
For the molecule B4, the binding entry in test [1] and in test [2] was “binds” throughout.

B5: HA–FNIP2 (protein, UniProt Q9P278 1-1114)
chain: MAPTLLQKLFNKRGSSGSSAAASAQGRAPKEGPAFSWSCSEFDLNEIRLIVYQDCDRRGRQVLFDSKAVQKIEEVTAQKTEDVPIKISAKCCQGSSSVSSSSSSSISSHSSSGGSSHHAKEQLPKYQYTRPASDVNMLGEMMFGSVAMSYKGSTLKIHYIRSPPQLMISKVFSARMGSFCGSTNNLQDSFEYINQDPNLGKLNTNQNSLGPCRTGSNLAHSTPVDMPSRGQNEDRDSGIARSASLSSLLITPFPSPSSSTSSSSSYQRRWLRSQTTSLENGIIPRRSTDETFSLAEETCSSNPAMVRRKKIAISIIFSLCEKEEAQRNFQDFFFSHFPLFESHMNRLKSAIEKAMISCRKIAESSLRVQFYVSRLMEALGEFRGTIWNLYSVPRIAEPVWLTMMSGTLEKNQLCQRFLKEFTLLIEQINKNQFFAALLTAVLTYHLAWVPTVMPVDHPPIKAFSEKRTSQSVNMLAKTHPYNPLWAQLGDLYGAIGSPVRLTRTVVVGKQKDLVQRILYVLTYFLRCSELQENQLTWSGNHGEGDQVLNGSKIITALEKGEVEESEYVVITVRNEPALVPPILPPTAAERHNPWPTGFPECPEGTDSRDLGLKPDKEANRRPEQGSEACSAGCLGPASDASWKPQNAFCGDEKNKEAPQDGSSRLPSCEVLGAGMKMDQQAVCELLKVEMPTRLPDRSVAWPCPDRHLREKPSLEKVTFQIGSFASPESDFESRMKKMEERVKACGPSLEASEAADVAQDPQVSRSPFKPGFQENVCCPQNRLSEGDEGESDKGFAEDRGSRNDMAADIAGQLSHAADLGTASHGAGGTGGRRLEATRGLYVKAAEGPVLEPVAPRCVQRGPGLVAGANIPCGDDNKKANFRTEGDIPRNESSDSALGDSDDEACASAMLDLGHGGDRTGGSLEVELPLPRSQSISTQNVRNFGRSLLAGYCPTYMPDLVLHGTGSDEKLKQCLVADLVHTVHHPVLDEPIAEAVCIIADTDKWSVQVATSQRKVTDNMKLGQDVLVSSQVSSLLQSILQLYKLHLPADFCIMHLEDRLQEMYLKSKMLSEYLRGHTRVHVKELGVVLGIESNDLPLLTAIASTHSPYVAQILL
With B5, in test [5], the binding entry is given as “binds”.
